Laboratory results as given in PubChem BioAssay AID445 (National Center for Advancing Translational Sciences (NCATS), 2006).
Values joined by “and” are separate entries in the source; they are usually repeats but may differ in a detail not shown here. Identical values can stand only once. The list shows a part of the results. Further columns of the screen follow, without active or inactive calls. Most of these compounds were active or inconclusive in the main read-out, so they are no random draw. Potencies come from curve fits of mixed quality, noted in brackets.

Test: IkB Signaling
Settings: ABC-DLBCL IkBa-CBG/CBR dual luciferase ratio (green luciferase fused to IkBa over red control in OCI-Ly3 lymphoma cells), 4 h
In short: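 In this assay, an IκBα–CBG68 fusion accumulates when IKK-driven degradation is blocked; native CBR normalizes for cell number. OCI-Ly3 cells were treated 4 h with compound and doxycycline, then green and red light read after Chroma-Glo addition.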

[1] = measured here: control luc red channel unless noted
[2] = measured here: IkB-luc green channel
[3] = measured here: control luc red channel

CC(C)(C)c1ccc(C(=O)N2CCN(Cc3cc(=O)n4nc(-c5ccccc5F)sc4n3)CC2)cc1
AC50 [1]: 0.0251 µM [falling, full curve]

O=C(OCN1C(=O)c2ccccc2C1=O)c1ccc2c(=O)n3c(nc2c1)CCC3
AC50 [1]: 15.8 µM [rising, partial curve]

Clc1ccc(-c2nnn3c2nc(NCc2ccc4c(c2)OCO4)c2ccccc23)cc1
AC50 [1]: 0.2 µM [falling, full curve]

CCc1cccc(NC(=O)CS(=O)Cc2nc(-c3ccc(C)cc3)oc2C)c1 (stereo not drawn)
AC50 [1]: 20 µM [falling, partial curve]

CCCCNC(=O)CC1N=C2c3ccccc3N=C(SCC(=O)NCc3ccccc3Cl)N2C1=O (stereo not drawn)
AC50 [1]: 39.8 µM [falling, single point]

Cc1ccc(NC(=O)CCC(=O)N2CCSc3ccccc32)cc1
AC50 [1]: 39.8 µM [falling, single point]

COc1cccc(C(=O)Nc2cccc(OCc3cc(=O)n4cccc(C)c4n3)c2)c1
AC50 [1]: 2 µM [falling, partial curve]

COC(=O)c1ccc(NC(=O)CC2C(=O)N(c3ccc(C)cc3)C(=O)N2Cc2ccc(OC)cc2)cc1 (stereo not drawn)
AC50 [1]: 25.1 µM [falling, partial curve]

CCc1ccccc1Nc1cc(C(=O)NCCCN(C)C2CCCCC2)c2ccccc2n1
AC50 [1]: 20 µM [falling, single point]

Cc1ccc(C)c(N2CCN(C(=O)c3nn(C)c4c3CS(=O)(=O)c3ccccc3-4)CC2)c1
AC50 [1]: 12.6 µM [falling, partial curve]

Cc1ccn2c(Nc3ccccc3C)c(-c3cccnc3)nc2c1
AC50 [1]: 39.8 µM [falling, single point]

COc1cccc(C(=O)Nc2ncc3c(n2)CC(C)(C)CC3=O)c1
AC50 [1]: 5.01 µM [falling, full curve]

O=C(CCn1ccc2cc(S(=O)(=O)N3CCCC3)ccc21)NCc1ccccc1Cl
AC50 [1]: 39.8 µM [falling, single point]

COc1cccc(-c2nnc3sc(CN4CCCCC4)cn23)c1
AC50 [1]: 12.6 µM [rising, partial curve]

CCC1CCCCN1C(=O)Cn1c(=O)n(CCCCCC(=O)NCc2ccccc2Cl)c(=O)c2sccc21 (stereo not drawn)
AC50 [1]: 39.8 µM [falling, partial curve]

O=C(NCCc1ccc(Cl)cc1)c1ccc2c(c1)N(Cc1cccc(Cl)c1)C(=O)c1ccccc1S2(=O)=O
AC50 [1]: 3.16 µM [rising, partial curve, poor fit]

c1ccc(C(Cc2nc(-c3ccncc3)no2)c2ccccc2)cc1
AC50 [1]: 3.98 µM [falling, partial curve]

CCCc1cc(N2CCN(c3ccc(OC)cc3)CC2)n2cnnc2n1
AC50 [1]: 12.6 µM [falling, partial curve, poor fit]

COc1ccccc1-c1nc(SCC(=O)Nc2ccc(C)c(C)c2)n[nH]1
AC50 [1]: 15.8 µM [falling, partial curve]

CCOC(=O)c1c(-c2cccs2)csc1NC(=O)CSc1ncn[nH]1
AC50 [1]: 12.6 µM [falling, partial curve]

Cc1sc2ncn(CC(=O)N(C)c3cccc(C(F)(F)F)c3)c(=O)c2c1S(=O)(=O)N1CCN(c2ncccn2)CC1
AC50 [1]: 0.00631 µM [rising, full curve, poor fit]

CCN(CC)C(=O)COc1ccc(-c2nnc(Nc3ccc(OC)c(C(=O)NC)c3)c3ccccc23)cc1
AC50 [1]: 15.8 µM [falling, partial curve]

CC(NC(=O)c1cccs1)C(c1cccs1)N1CCN(c2ccccc2)CC1 (stereo not drawn)
AC50 [1]: 25.1 µM [falling, partial curve]

COc1ccc(/C=C\C(=O)Nc2ccccc2C(=O)O)cc1OC
AC50 [2]: 2.51 µM [rising, full curve, poor fit] | AC50 [3]: 2.51 µM [falling, full curve] and 398 nM [falling, full curve]

CCc1cccc(C)c1NC(=O)C(CC)Sc1nncn2c1cc1occc12 (stereo not drawn)
AC50 [1]: 25.1 µM [falling, partial curve]

CCS(=O)(=O)N1CCc2cc(C(=O)Nc3cc(OC)c(Cl)cc3OC)ccc21
AC50 [1]: 25.1 µM [falling, single point]

Cc1ccc(Nc2nc(C)c(NC(=O)c3ccc(C)cc3)c(Nc3ccc(C)cc3)n2)cc1
AC50 [1]: 10 µM [falling, partial curve]

COc1ccc(NC(=O)c2oc3ccccc3c2NC(=O)COc2ccc(F)cc2)c(OC)c1
AC50 [1]: 3.98 µM [rising, partial curve]

CCCNc1nc2c(c(=O)n(C)c(=O)n2C)n1CC(O)COc1ccccc1 (stereo not drawn)
AC50 [1]: 39.8 µM [falling, partial curve]

Cc1ccc(NC(=O)Cn2cc(C(=O)C3CCCCC3)c3ccccc32)c(C)c1
AC50 [1]: 7.94 µM [falling, full curve]

Cn1c(=O)n(C)c2cc(NS(=O)(=O)c3ccc(C(C)(C)C)cc3)c(NCc3ccccc3)cc21
AC50 [1]: 10 µM [falling, partial curve]

Cc1cccc(C(=O)Nc2nnc(S(=O)(=O)N3CCCc4ccccc43)s2)c1
AC50 [1]: 10 µM [falling, partial curve]

Fc1ccc(N2CCN(C(c3cccs3)c3nnnn3C3CCCC3)CC2)cc1 (stereo not drawn)
AC50 [1]: 15.8 µM [falling, partial curve]

Cc1ccc(-c2nnc(Nc3cccc(Br)c3)c3ccccc23)cc1S(=O)(=O)NCC1CCCO1 (stereo not drawn)
AC50 [1]: 1.26 µM [falling, partial curve]

CCC(C(=O)Nc1cccc(C#N)c1)n1nc(-c2ccccc2)ccc1=O (stereo not drawn)
AC50 [1]: 31.6 µM [falling, single point]

O=C(c1ccc2c(c1)N(Cc1ccc(Cl)cc1)C(=O)c1ccccc1S2(=O)=O)N1CCc2ccccc21
AC50 [1]: 20 µM [falling, partial curve, poor fit]

COc1ccc(-c2cc(C(=O)N3CCCc4ccccc43)no2)cc1
AC50 [1]: 12.6 µM [falling, partial curve]

CCOc1ccc(C2C(=O)N(C3CCCCCC3)CC(=O)N2CCc2ccc(Cl)cc2)cc1OC (stereo not drawn)
AC50 [1]: 39.8 µM [falling, partial curve]

Cc1cccc(CN2C(=O)c3ccccc3Sc3ccc(C(=O)NCc4cccs4)cc32)c1
AC50 [1]: 7.94 µM [falling, full curve]

COc1ccc(-c2noc(CN(C)S(=O)(=O)c3ccc(Cl)cc3)n2)cc1OC
AC50 [1]: 15.8 µM [falling, partial curve]

CCOC(=O)c1c(C)n(-c2ccccc2)c2ccc(OC(=O)c3cc(OC)cc(OC)c3)cc12
AC50 [1]: 20 µM [rising, partial curve]

CCc1ccc(NC(=O)c2cc(C)nn2-c2ccccc2)cc1
AC50 [1]: 20 µM [falling, partial curve]

COc1cc2oc(-c3ccccc3)cc(=O)c2cc1O
AC50 [2]: 5.01 µM [rising, single point] | AC50 [3]: 6.31 µM [rising, single point]

CCOC(=O)c1c(NC(=O)c2cc3ccccc3c(=O)o2)sc2c1CCC(C(C)(C)C)C2 (stereo not drawn)
AC50 [1]: 2.51 µM [falling, full curve]

O=c1c2ccccc2nc(N2CCN(c3cccc(Cl)c3)CC2)n1-c1ccccc1
AC50 [1]: 31.6 µM [falling, single point]

Cc1c(CC(C)(C)C(=O)O)n(Cc2ccc(Cl)cc2)c2ccc(F)cc12
AC50 [1]: 31.6 µM [falling, partial curve]

COC(=O)c1cccc(CN2C(=O)SC(Nc3ccc(Cl)cc3)C2=O)c1 (stereo not drawn)
AC50 [1]: 20 µM [falling, partial curve]

COc1ccc(Nc2c3c(nc4nncn24)CCC3)cc1Cl
AC50 [1]: 25.1 µM [falling, single point]

O=C(Nc1ccccc1C(F)(F)F)N1CCC2(CC1)Oc1ccccc1C(=O)N2Cc1ccccc1F
AC50 [1]: 15.8 µM [falling, partial curve]

CCCCOc1ccccc1NC(=O)CSc1nnnn1C(C)(C)C
AC50 [1]: 12.6 µM [falling, partial curve]

CCCc1cc(=O)[nH]c(Nc2ccc(C)c(O)c2)n1
AC50 [1]: 0.00501 µM [rising, full curve]

CCCCOc1ccc(C(=O)Nc2nc3c(s2)CC(C)CC3)cc1 (stereo not drawn)
AC50 [1]: 6.31 µM [falling, partial curve]

COCCNC(=O)c1ccc2c(c1)N(Cc1c(F)cccc1Cl)C(=O)c1ccccc1S2
AC50 [1]: 15.8 µM [falling, partial curve]

CCc1ccc(N2C(=O)N(CC(=O)C(C)(C)C)c3ccccc3S2(=O)=O)cc1
AC50 [1]: 3.16 µM [falling, single point]

Nc1c(NCc2ccccc2)c2ccccc2oc1=O
AC50 [1]: 20 µM [falling, single point]

COc1ccc(CCNC(=O)Cn2nc(C)c3c(C)n(-c4ccc(C)cc4)nc3c2=O)c(OC)c1
AC50 [1]: 6.31 µM [falling, partial curve]

CC(=O)c1cc2c(cc1NC(=O)CCc1ccccc1)OCO2
AC50 [1]: 20 µM [falling, single point]

CCn1c(=O)cc(SCC(=O)N2CCN(c3ccccc3OC)CC2)c2ccccc21
AC50 [1]: 15.8 µM [falling, partial curve]

CCC(c1nnnn1Cc1ccco1)N(Cc1cc2cc(OC)ccc2[nH]c1=O)C1CCCCC1 (stereo not drawn)
AC50 [1]: 31.6 µM [falling, single point]

COc1cc(NC(=O)Cn2c(=O)nc(-c3ccccc3F)c3cc(Cl)ccc32)cc(OC)c1
AC50 [1]: 31.6 µM [falling, single point]

COC(=O)c1ccccc1NC(=O)Cn1nc(C(F)(F)F)c2c1CCCC2
AC50 [1]: 39.8 µM [falling, single point]
